# According to patent US20230210096A1, “NON-HUMAN ANIMAL MODELS FOR AGING AND/OR NEURODEGENERATION” (University of Pittsburgh - Of the Commonwealth System of …, priority 2020, published 2023):
# At least one structure is not confirmed: it was looked up by name or label, or the drawing left a doubt.
# Columns and labels:
# Assay type in all cases: cell-based, mouse
# [1] = tested on: AANAT-KO differentiated N2a cells; experiment: Cytokine ELISA in culture medium of differentiated N2a cells; details: mtDNA depleted AANAT-KO neurons, EtBr 1 µg/mL
# Description: (§1) N2a cells were obtained from ATCC and grown in DMEM/F12 medium with 10% FBS. AANAT-KO N2a cells were generated as described elsewhere (see, e.g., Suofu et al., PNAS 114:E7997-E8006 (2017)). N2a cells were differentiated by exposing them to 10 µM retinoic acid (RA) with 2% fetal bovine serum (FBS) for 8 days. Every alternate day, the culture medium of differentiating N2a cells was replaced with fresh medium containing 10 µM of RA. N2a cells were treated with 5 µM melatonin during differentiation to evaluate the effect of melatonin in WT and AANAT-KO N2a differentiated neurons. Fresh melatonin was added with RA every alternate day for 8 days. All experiments were performed in 8-day-differentiated neurons with or without melatonin. STHdh^Q7/Q7 (Q7) STHdh^Q111/Q111 (Q111) cells were grown in MEM culture medium with 10% FBS. Differentiation of Q7 and Q111 cells was induced by exposing cells to 10 ng/mL α-FGF, 250 µM 3-isobutyl-1-methylxanthine (IBMX), 200 nM phorbol 12-myristate 13-acetate (TPA), 50 µM forskolin and 10 µM dopamine for 2 days. AANAT-KO and littermate WT primary cerebro-cortical neuron (PCN) cultures were prepared from embryonic day (E) 15.5 embryos, as described elsewhere (see, e.g., Yano et al., Nature neuroscience 17:822 (2014)).
# N2a cells = experiment: Generation of mtDNA-deficient N2a cells by EtBr (mtDNA copy number, mt-CO1 immunoblot); details: WT and AANAT-KO N2a cells, different concentrations of EtBr
# [2] = tested on: AANAT-KO differentiated N2a cells; experiment: ROS (Mitosox) and MMP (JC-1/TMRM) in differentiated N2a cells; details: mtDNA depleted N2a cells, EtBr 1 µg/mL
# Description: as §1, with “Differentiation of Q7 and Q111 cells was induced by exposing cells to 10 ng/mL α-FGF, 250 µM 3-isobutyl-1-methylxanthine (IBMX), 200 nM phorbol 12-myristate 13-acetate (TPA), 50 µM forskolin and 10 µM dopamine for 2 days. AANAT-KO and littermate WT primary cerebro-cortical neuron (PCN) cultures were prepared from embryonic day (E) 15.5 embryos, as described elsewhere (see, e.g., Yano et al., Nature neuroscience 17:822 (2014)).” left out
# ROS accumulation in cells was estimated by either DCFDA for total ROS or Mitosox for mitochondrial ROS. Cells were incubated in 20 µM DCFDA for 45 minutes or 5 µM Mitosox for 15 minutes at 37° C. and fluorescence was measured using plate reader or flowcytometry. […] Cells were incubated in 2 µg/mL JC-1 or 25 nM TMRM for 30 minutes at 37° C. and fluorescence were measured using plate reader or flowcytrometry. […]
# [3] = tested on: AANAT-KO differentiated N2a cells; experiment: qPCR of cytosolic mtDNA in differentiated N2a cells; details: ρ0 AANAT-KO neurons, EtBr 1 µg/mL
# Description: as §1, with “AANAT-KO and littermate WT primary cerebro-cortical neuron (PCN) cultures were prepared from embryonic day (E) 15.5 embryos, as described elsewhere (see, e.g., Yano et al., Nature neuroscience 17:822 (2014)).” left out
# For measurement of mtDNA in cytosol in cells, cell fractions were prepared using Cell Fractionation Kit (Abeam). […] The copy number of mtDNA encoding cytochrome c oxidase 1 (mt-CO1), mt-Dloop1 and mt-Dloop3 was measured by quantitative real-time PCR with same volume of DNA solution. […]
# [4] = tested on: AANAT-KO differentiated N2a cells; experiment: Immunoblot of inflammatory, caspase and synaptic markers in differentiated N2a cells; details: mtDNA depleted AANAT-KO neurons, EtBr 1 µg/mL
# Description: N2a cells were obtained from ATCC and grown in DMEM/F12 medium with 10% FBS. AANAT-KO N2a cells were generated as described elsewhere (see, e.g., Suofu et al., PNAS 114:E7997-E8006 (2017)). N2a cells were differentiated by exposing them to 10 µM retinoic acid (RA) with 2% fetal bovine serum (FBS) for 8 days. Every alternate day, the culture medium of differentiating N2a cells was replaced with fresh medium containing 10 µM of RA. N2a cells were treated with 5 µM melatonin during differentiation to evaluate the effect of melatonin in WT and AANAT-KO N2a differentiated neurons. Fresh melatonin was added with RA every alternate day for 8 days. All experiments were performed in 8-day-differentiated neurons with or without melatonin. […]
# Samples (isolated mitochondria or whole-cell lysates) were cleared by centrifugation at 20,000 x g, equal amounts of protein were separated on Novex 4-12% gradient polyacrylamide gels (Invitrogen), and proteins transferred overnight onto 0.45 µm polyvinylidene difluoride (PVDF) membranes. The membranes were then incubated with the indicated primary antibodies overnight at 4° C. followed by incubation with secondary antibodies (Li-Cor) for 1 hour at room temperature, which were detected using the Odyssey CLx Infrared Imaging System (Li-Cor). Band intensities were quantified using Image Studio (Li-Cor).
structure (smiles),measurement,setting,value
"CC[n+]1c(-c2ccccc2)c2cc(N)ccc2c2ccc(N)cc21 [EtBr, ethidium bromide]",proinflammatory cytokine secretion,[1],reduced
same,"mtDNA in N2a cells (copy number, mt-CO1 protein)",N2a cells,dose dependent depletion
same,MMP (TMRM),[2],did not alter
same,mitochondrial ROS (Mitosox),[2],did not alter
same,mtDNA release (cytosolic mtDNA),[3],decreased
same,"caspase-1, caspase-3 and caspase-9 activation and bid cleavage",[4],inhibited
